Source: PubChem BioAssay AID1259267 (Sanger Institute, 2017)

- Purpose: 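Kinase and colorectal-mutated gene knock-downs lethal to GP5D cells alone or with drugs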 (primary screen)
- System: human GP5D colorectal cancer cells
- Knock-down reagent: siRNA pool against human genes
- Treatment: anchor drugs at low dose: BYL719 1 µM, cetuximab 5 µg/ml, trametinib 10 nM, or DMSO vehicle
- Measurement: 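Mean replicate viability versus non-targeting pool, given as knock-down-alone robust z-score, DMSO fraction, and synergy with low-dose BYL719, cetuximab or trametinib (1 µM, 5 µg/ml, 10 nM)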
- Scale: robust z-score, knock-down alone and viability with DMSO: higher = more viable cells; synergy score with trametinib and synergy score with BYL719 and synergy score with cetuximab: higher = stronger synthetic lethal synergy with drug
- Call rule: 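Active (essential alone) if knock-down without drug gives robust z-score under -3; drug synergy does not count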
- Meaning of the calls: active = essential alone; inactive = not essential
Shown is a random part of 794 reagents tested. 9 of them (1.1%) were called active. 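Viability capped at 1; calls reflect loss of viability from knock-down alone, not synergy with drugs.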 A number with no mark means an inactive call. Reagents against one gene are numbered here. The record does not give: the amount of reagent, the time to read-out.

The first 4 records, to show the layout:
Target gene	reagent	robust z-score, knock-down alone	viability with DMSO (fraction of control)	synergy score with trametinib	synergy score with BYL719	synergy score with cetuximab
LRRK2	1	0.817	1	0.151	0.125	-0.142
PGK1	1	-0.0936	0.807	0.0557	-0.285	-0.0582
TYK2	1	0.646	0.964	-0.0736	-0.0186	-0.0982
PFKP	1	0.817	1	0.175	0.00775	0.0824

Results, from the start:
Target gene	reagent	robust z-score, knock-down alone	viability with DMSO (fraction of control)	synergy score with trametinib	synergy score with BYL719	synergy score with cetuximab
LRRK2	1	0.817	1	0.151	0.125	-0.142
PGK1	1	-0.0936	0.807	0.0557	-0.285	-0.0582
TYK2	1	0.646	0.964	-0.0736	-0.0186	-0.0982
PFKP	1	0.817	1	0.175	0.00775	0.0824
LIMK2	1	0.817	1	-0.0385	-0.29	-0.142
AK2	1	0.698	0.975	0.475	-0.0352	0.0245
ILK	1	0.817	1	-0.0473	-0.299	-0.142
ILK	2	0.817	1	0.384	-0.108	-0.142
MAPK1	1	0.817	1	0.121	0.0414	-0.0572
PFKFB3	1	0.817	1	0.213	-0.045	-0.0767
TGFBR2	1	0.194	0.868	0.0639	0.00714	0.159
CDKN1A	1	0.817	1	-0.197	-0.218	-0.136
ULK3	1	-0.596	0.701	-0.0671	-0.282	-0.0714
PRKAG3	1	-1.03	0.608	0.0823	-0.162	-0.12
NTRK1	1	-0.383	0.746	0.112	-0.0154	-0.0375
MECOM	1	0.817	1	-0.197	-0.149	-0.142
AXL	1	0.774	0.991	-0.111	-0.154	-0.15
PHKB	1	-0.711	0.676	0.131	-0.0583	-0.0172
CAMK2G	1	0.715	0.978	-0.119	-0.249	-0.161
PKN3	1	0.817	1	0.0729	-0.0612	0.00597
SOS2	1	0.817	1	0.125	0.0383	-0.0495
PCK1	1	0.119	0.852	0.215	-0.0113	-0.0384
SIK3	1	0.817	1	-0.182	-0.361	-0.142
LMTK3	1	-1.91	0.422	-0.24	-0.411	-0.432
PTPN11	1	0.592	0.952	-0.0321	-0.256	-0.0439
HIPK3	1	-2.06	0.391	-0.105	-0.278	-0.332
BMP2K	1	0.1	0.848	0.204	-0.104	0.16
CKS1B	1	0.817	1	-0.142	-0.219	-0.142
EPHB1	1	0.817	1	-0.114	-0.144	-0.142
NADK	1	0.302	0.891	-0.285	-0.162	-0.115
GAK	1	-0.197	0.785	0.137	-0.185	-0.127
PAK6	1	0.817	1	0.139	-0.0193	0.0591
GTF2H1	1	-0.49	0.723	-0.0913	-0.0312	-0.0273
PRKCA	1	-1.28	0.556	0.0836	-0.164	-0.418
KIT	1	0.121	0.852	0.218	-0.183	0.163
TSSK1B	1	0.341	0.899	-0.0791	-0.253	-0.163
CSNK2B	1	-0.391	0.744	-0.00675	-0.0515	-0.179
MPP1	1	0.817	1	0.16	-0.146	-0.142
MGA	1	-1.15	0.583	0.1	-0.118	-0.192
AURKA	1	-2.78	0.237	0.00871	-0.0517	0.00682
IKBKG	1	0.817	1	0.00823	0.0719	-0.0905
FXN	1	0.179	0.865	-0.0161	-0.135	-0.241
RIPK3	1	0.817	1	0.081	-0.0512	0.192
PIM3	1	0.817	1	0.0905	-0.361	-0.142
CSNK1A1	1	0.817	1	0.358	-0.0902	0.196
TRIB3	1	-1.7	0.466	-0.204	-0.294	-0.115
GSK3A	1	0.817	1	0.181	-0.086	0.0197
ITPK1	1	0.817	1	-0.116	-0.298	-0.142
ADCK2	1	-1.71	0.465	-0.133	-0.261	-0.237
JAK3	1	0.817	1	0.236	0.0552	-0.0212
